PubChem BioAssay AID652259 | Drosophila RNAi Screening Center – 2013
The deposit covers about 22,000 reagents; this is a random part of those that have a named target and a result. Over the whole deposit, 233 (1.1%) are marked active. 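Light values are raw, unnormalised plate reads; the ratio scores behind the reporter calls were not deposited.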 Entries without a mark were called inactive. A plus sign joins genes that one reagent is predicted to hit. Reagent sequences are not shown. Not given: the amount of reagent, the time to read-out, the dose of the treatment.

Test: 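Genome-wide hunt for genes that control Wingless pathway activity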 (primary screen)
Cells: Drosophila clone 8 imaginal disc epithelial cells
Knock-down reagent: long dsRNA against Drosophila genes
Challenge: pathway stimulated by co-transfected Wingless expression plasmid
Measured: 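Firefly luciferase from a tcf-site Wingless reporter, measured alongside co-transfected Renilla luciferase that tracks transfection; pathway stimulated by a Wingless plasmid; the firefly-to-Renilla ratio is not deposited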
Scale: firefly reporter light: higher = more Wg reporter light, before normalisation; Renilla control light: higher = more transfected or surviving cells
Rule for the call: 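Strong candidates differ from their plate mean by at least two out of four per-plate statistical tests; weak candidates meet just one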
Calls: active = candidate regulator (raises or lowers reporter); inactive = not a candidate

Ir68b (Ionotropic receptor 68b) [DRSC10251] → firefly reporter light, replicate 1 = 7296; Renilla control light, replicate 1 = 2170
Dif (Dorsal-related immunity factor) [DRSC03316] → firefly reporter light, replicate 1 = 3516; firefly reporter light, replicate 2 = 9159; Renilla control light, replicate 1 = 1624; Renilla control light, replicate 2 = 4077
borr (borealin-related) [DRSC02749] → firefly reporter light, replicate 1 = 9248; Renilla control light, replicate 1 = 2085
stv (starvin) [DRSC09796] → firefly reporter light, replicate 1 = 8754; Renilla control light, replicate 1 = 1634
stv (starvin) [DRSC10111] → firefly reporter light, replicate 1 = 7026; Renilla control light, replicate 1 = 2954
Hr78 (Hormone-receptor-like in 78) [DRSC11866] → firefly reporter light, replicate 1 = 5139; Renilla control light, replicate 1 = 2232
Nsun2 (NOP2-Sun domain family, member 2) [DRSC18662] → firefly reporter light, replicate 1 = 4832; firefly reporter light, replicate 2 = 9467; Renilla control light, replicate 1 = 1877; Renilla control light, replicate 2 = 3504
LysD + LysC (retired record) [DRSC08674] → firefly reporter light, replicate 1 = 4816; Renilla control light, replicate 1 = 1985
LysD + LysC (retired record) [DRSC22743] → firefly reporter light, replicate 1 = 7.23e5; firefly reporter light, replicate 2 = 7.73e5; Renilla control light, replicate 1 = 1.78e5; Renilla control light, replicate 2 = 1.21e5
CG32241 [DRSC08100] → firefly reporter light, replicate 1 = 4237; Renilla control light, replicate 1 = 1569
CG32241 [DRSC21518] → firefly reporter light, replicate 1 = 7.67e5; firefly reporter light, replicate 2 = 8.98e5; Renilla control light, replicate 1 = 2.34e5; Renilla control light, replicate 2 = 2.03e5

2 consecutive entries from above, quoted:
borr (borealin-related) [DRSC02749] → firefly reporter light, replicate 1 = 9248; Renilla control light, replicate 1 = 2085
stv (starvin) [DRSC09796] → firefly reporter light, replicate 1 = 8754; Renilla control light, replicate 1 = 1634

The results go on.
CG31949 [DRSC00110] → firefly reporter light, replicate 1 = 22855; Renilla control light, replicate 1 = 10672
CG32170 [DRSC09452] → firefly reporter light, replicate 1 = 2950; Renilla control light, replicate 1 = 1690
CG1607 [DRSC15130] → firefly reporter light, replicate 1 = 2897; firefly reporter light, replicate 2 = 5960; Renilla control light, replicate 1 = 1330; Renilla control light, replicate 2 = 2387
Pvf1 (PDGF- and VEGF-related factor 1) [DRSC20024] → firefly reporter light, replicate 1 = 2602; firefly reporter light, replicate 2 = 9129; Renilla control light, replicate 1 = 1420; Renilla control light, replicate 2 = 3356
Prosalpha2 (Proteasome alpha2 subunit) [DRSC16798] → firefly reporter light, replicate 1 = 11399; Renilla control light, replicate 1 = 3504
kkv (krotzkopf verkehrt) [DRSC12315] → firefly reporter light, replicate 1 = 6597; Renilla control light, replicate 1 = 2472
